# Reference: the supplement of paper PMC12823440, “Inhibitors supercharge kinase turnover through native proteolytic circuits” (Nature, 2025)
# The chains behind the UniProt entries cited, without tags or fusion partners. Where a name states a change or a piece, a line headed by the entry shows the natural chain unless it says otherwise.
# UniProt Q13555: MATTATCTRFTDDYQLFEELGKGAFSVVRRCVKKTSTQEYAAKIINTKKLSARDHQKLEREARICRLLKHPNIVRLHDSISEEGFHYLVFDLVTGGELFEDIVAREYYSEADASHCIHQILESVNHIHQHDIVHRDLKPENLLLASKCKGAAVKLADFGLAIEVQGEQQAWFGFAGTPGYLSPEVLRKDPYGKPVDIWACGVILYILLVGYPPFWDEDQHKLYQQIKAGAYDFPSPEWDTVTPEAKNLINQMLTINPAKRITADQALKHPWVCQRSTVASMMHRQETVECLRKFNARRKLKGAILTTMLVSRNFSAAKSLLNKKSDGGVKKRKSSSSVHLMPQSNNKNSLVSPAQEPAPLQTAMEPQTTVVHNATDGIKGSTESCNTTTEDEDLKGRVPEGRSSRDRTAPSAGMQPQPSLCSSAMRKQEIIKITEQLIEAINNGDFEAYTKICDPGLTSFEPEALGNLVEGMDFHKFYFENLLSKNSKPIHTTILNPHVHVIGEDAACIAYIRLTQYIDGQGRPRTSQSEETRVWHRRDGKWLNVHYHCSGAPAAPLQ
# UniProt Q15131: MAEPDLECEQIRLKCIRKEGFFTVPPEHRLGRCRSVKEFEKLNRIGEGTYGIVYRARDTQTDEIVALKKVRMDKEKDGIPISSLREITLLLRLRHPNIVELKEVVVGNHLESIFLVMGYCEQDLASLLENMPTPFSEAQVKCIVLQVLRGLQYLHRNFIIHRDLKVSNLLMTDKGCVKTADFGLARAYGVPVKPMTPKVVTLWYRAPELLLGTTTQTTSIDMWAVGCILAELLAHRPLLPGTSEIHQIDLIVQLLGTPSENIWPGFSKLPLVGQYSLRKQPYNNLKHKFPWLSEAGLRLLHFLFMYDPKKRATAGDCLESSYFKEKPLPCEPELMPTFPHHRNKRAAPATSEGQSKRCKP
# UniProt Q00526: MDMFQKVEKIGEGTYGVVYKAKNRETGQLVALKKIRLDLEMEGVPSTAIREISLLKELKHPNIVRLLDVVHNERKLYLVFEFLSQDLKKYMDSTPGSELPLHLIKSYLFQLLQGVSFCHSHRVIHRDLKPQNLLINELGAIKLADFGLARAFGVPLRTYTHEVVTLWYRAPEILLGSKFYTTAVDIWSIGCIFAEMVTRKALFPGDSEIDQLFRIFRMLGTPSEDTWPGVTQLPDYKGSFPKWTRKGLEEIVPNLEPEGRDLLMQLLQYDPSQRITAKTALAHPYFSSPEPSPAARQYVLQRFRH
# UniProt P11802: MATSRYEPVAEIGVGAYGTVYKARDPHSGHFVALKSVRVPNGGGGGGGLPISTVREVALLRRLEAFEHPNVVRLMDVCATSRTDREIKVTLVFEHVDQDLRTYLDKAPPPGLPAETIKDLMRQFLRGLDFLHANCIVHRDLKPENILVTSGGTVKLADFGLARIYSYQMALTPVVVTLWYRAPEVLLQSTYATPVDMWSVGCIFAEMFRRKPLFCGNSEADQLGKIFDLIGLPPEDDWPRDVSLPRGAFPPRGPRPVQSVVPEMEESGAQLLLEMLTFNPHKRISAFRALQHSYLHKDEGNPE
# UniProt Q00535, whole entry, looked up: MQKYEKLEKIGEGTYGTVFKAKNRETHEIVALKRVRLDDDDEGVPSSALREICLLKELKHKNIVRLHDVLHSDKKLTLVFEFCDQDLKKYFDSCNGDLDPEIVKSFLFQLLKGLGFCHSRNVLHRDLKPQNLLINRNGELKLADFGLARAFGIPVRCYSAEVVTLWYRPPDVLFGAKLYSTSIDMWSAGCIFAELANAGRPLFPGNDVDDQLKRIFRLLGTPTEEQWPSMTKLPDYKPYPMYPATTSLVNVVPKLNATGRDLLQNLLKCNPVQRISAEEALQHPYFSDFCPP
# UniProt P50613: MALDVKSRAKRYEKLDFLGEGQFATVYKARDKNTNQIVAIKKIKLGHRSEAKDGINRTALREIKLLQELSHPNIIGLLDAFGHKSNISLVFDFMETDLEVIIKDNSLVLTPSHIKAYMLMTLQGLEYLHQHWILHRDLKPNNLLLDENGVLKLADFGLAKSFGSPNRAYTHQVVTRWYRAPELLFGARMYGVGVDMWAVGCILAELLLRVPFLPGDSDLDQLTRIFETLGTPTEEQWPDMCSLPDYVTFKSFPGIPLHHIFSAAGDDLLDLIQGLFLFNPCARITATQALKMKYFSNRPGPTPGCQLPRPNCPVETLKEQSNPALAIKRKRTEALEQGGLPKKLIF
# UniProt P50750, whole entry: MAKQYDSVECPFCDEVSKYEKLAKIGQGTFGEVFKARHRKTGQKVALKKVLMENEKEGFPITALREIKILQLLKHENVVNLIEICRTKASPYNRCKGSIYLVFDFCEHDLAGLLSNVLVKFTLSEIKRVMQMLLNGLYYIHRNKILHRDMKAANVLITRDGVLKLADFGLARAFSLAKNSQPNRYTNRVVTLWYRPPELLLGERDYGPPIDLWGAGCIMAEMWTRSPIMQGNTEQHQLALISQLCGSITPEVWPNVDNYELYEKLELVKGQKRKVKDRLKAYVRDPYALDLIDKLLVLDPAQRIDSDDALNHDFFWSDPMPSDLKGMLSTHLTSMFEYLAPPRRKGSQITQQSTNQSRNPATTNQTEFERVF
# UniProt O96017, whole entry: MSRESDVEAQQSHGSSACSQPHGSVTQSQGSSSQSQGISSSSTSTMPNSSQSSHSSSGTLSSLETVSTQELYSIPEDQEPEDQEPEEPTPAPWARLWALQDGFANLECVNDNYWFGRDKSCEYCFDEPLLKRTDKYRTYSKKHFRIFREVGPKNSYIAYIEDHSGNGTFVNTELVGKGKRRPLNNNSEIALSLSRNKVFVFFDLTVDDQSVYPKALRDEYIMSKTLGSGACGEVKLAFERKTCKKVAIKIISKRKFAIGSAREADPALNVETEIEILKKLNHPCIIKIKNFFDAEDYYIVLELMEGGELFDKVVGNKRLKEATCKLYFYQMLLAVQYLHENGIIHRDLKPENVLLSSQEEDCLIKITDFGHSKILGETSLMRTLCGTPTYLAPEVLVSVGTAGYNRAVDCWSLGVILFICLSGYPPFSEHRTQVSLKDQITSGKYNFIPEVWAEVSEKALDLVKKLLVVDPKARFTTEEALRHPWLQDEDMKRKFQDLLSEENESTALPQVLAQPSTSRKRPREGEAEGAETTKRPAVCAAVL
# UniProt P07333, whole entry: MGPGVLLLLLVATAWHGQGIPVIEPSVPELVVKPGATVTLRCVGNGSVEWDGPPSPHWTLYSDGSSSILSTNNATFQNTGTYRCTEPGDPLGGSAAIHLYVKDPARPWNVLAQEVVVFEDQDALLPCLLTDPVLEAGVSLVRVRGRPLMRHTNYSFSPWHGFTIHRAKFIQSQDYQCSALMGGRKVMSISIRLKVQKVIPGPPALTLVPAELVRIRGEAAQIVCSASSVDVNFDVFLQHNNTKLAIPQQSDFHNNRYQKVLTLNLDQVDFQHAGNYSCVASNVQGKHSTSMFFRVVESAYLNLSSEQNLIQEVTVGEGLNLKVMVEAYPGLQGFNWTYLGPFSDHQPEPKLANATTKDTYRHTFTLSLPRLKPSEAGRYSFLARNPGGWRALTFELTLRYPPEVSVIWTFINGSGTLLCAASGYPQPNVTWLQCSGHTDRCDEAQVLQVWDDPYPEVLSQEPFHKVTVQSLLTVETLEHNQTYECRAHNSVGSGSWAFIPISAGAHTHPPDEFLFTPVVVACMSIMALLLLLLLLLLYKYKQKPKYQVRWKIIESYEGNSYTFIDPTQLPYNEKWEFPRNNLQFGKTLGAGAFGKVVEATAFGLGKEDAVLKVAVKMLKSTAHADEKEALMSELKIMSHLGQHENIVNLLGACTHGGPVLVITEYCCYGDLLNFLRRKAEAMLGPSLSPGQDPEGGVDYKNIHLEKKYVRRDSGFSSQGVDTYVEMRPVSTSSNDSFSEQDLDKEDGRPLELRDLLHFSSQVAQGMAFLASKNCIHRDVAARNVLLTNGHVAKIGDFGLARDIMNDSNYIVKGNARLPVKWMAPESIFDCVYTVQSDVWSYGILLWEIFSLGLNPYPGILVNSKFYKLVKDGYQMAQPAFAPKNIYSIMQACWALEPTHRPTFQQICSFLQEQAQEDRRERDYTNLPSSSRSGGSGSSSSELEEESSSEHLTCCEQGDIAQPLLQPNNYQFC
# UniProt P41240: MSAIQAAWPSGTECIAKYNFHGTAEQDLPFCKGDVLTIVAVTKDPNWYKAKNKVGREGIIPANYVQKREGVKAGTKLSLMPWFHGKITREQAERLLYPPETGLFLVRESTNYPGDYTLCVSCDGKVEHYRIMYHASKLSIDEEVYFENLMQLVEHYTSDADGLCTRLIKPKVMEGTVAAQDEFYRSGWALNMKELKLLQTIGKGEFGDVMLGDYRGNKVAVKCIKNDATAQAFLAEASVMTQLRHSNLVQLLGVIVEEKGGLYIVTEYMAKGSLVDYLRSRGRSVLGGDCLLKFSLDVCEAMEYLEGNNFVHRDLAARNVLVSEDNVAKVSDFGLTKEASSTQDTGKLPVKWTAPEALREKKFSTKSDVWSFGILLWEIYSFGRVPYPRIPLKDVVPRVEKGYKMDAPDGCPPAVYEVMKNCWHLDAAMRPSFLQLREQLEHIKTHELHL
# UniProt P48729: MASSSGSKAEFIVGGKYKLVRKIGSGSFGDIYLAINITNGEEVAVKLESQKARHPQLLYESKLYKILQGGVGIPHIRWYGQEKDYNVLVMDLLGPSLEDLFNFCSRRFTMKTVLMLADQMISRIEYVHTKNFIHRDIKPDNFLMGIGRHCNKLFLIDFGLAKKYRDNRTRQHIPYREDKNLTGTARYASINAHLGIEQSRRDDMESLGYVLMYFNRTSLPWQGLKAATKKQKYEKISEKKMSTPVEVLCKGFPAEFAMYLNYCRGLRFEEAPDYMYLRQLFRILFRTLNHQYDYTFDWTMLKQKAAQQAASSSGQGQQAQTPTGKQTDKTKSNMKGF
# UniProt P48730: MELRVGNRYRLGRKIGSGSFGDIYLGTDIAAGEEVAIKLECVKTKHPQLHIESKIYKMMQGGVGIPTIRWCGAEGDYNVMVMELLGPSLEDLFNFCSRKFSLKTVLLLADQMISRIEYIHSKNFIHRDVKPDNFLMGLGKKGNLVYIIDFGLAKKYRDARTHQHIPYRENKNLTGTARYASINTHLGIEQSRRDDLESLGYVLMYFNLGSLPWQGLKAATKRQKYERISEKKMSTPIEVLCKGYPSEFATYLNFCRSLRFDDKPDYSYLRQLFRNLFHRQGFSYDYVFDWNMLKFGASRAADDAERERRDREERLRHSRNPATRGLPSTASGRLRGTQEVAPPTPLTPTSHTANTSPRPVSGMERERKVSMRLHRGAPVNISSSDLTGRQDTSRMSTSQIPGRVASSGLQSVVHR
# UniProt Q9Y463, whole entry, looked up: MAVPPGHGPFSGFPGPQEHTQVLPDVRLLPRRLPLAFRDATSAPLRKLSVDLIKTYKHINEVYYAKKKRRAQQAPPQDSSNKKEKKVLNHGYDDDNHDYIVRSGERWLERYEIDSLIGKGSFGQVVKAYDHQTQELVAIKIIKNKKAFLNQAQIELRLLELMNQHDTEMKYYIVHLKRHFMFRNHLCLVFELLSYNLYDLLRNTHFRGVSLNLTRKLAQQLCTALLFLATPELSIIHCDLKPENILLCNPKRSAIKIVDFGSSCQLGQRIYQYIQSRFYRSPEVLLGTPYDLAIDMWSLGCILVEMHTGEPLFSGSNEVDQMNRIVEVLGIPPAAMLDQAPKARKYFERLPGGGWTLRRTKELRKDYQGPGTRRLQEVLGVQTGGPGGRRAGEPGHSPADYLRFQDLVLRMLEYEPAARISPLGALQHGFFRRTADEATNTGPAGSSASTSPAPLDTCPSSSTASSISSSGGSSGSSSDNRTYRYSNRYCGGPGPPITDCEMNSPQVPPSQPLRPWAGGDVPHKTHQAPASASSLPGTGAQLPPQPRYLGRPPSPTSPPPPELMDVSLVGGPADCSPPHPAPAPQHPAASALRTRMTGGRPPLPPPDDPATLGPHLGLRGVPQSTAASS
# UniProt Q92630: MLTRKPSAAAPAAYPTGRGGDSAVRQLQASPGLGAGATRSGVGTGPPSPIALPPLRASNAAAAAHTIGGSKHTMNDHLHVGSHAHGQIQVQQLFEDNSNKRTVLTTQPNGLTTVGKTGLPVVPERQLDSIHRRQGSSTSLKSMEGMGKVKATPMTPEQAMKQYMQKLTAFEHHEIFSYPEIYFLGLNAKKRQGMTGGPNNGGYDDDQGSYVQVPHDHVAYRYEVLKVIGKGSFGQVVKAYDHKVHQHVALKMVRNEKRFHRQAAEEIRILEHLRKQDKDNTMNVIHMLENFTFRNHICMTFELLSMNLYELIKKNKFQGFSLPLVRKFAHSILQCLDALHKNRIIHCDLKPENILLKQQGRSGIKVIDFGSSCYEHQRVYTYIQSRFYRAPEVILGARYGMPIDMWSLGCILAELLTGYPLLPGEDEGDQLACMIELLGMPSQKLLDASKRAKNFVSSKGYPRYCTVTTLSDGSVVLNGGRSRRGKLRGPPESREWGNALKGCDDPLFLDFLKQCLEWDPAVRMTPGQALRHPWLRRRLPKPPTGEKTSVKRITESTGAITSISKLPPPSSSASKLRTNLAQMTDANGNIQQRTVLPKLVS
# Counter-ions that a name gives are not always drawn. Some of the results follow. The calls rarely recur for the same compound in another form.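 In K562 cells expressing nanoluciferase-fused kinases, luminescence was recorded at 4 h intervals between 2 and 18 h, normalized as percent of control with DMSO at 100% and a positive control at 0%. A significant (2 sigma) signal drop marks a time point as decreased. The authors' rule for a hit is not shown and takes in more than the number of time points.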
# Key:
# Experiment in all cases: kinase-Nluc reporter destabilization hit call (1 = scored as downregulated) (binary); higher = compound decreases kinase abundance
# Conditions in all cases: K562; 2-18 h
# BRAF_V600E = system: BRAF_V600E
# BTK = BTK (UniProt Q06187)
# CAMK2A = CAMK2A (UniProt Q9UQM7)
# CAMK2G = CAMK2G (UniProt Q13555)
# CDK10 = CDK10 (UniProt Q15131)
# CDK2 = CDK2 (UniProt P24941)
# CDK3 = CDK3 (UniProt Q00526)
# CDK4 = CDK4 (UniProt P11802)
# CDK5 = CDK5 (UniProt Q00535)
# CDK6 = CDK6 (UniProt Q00534)
# CDK7 = CDK7 (UniProt P50613)
# CDK9 = CDK9 (UniProt P50750)
# CHEK2 = CHEK2 (UniProt O96017)
# CSF1R = CSF1R (UniProt P07333)
# CSK = CSK (UniProt P41240)
# CSNK1A1 = CSNK1A1 (UniProt P48729)
# CSNK1D = CSNK1D (UniProt P48730)
# DDR1 = DDR1 (UniProt Q08345)
# DYRK1B = DYRK1B (UniProt Q9Y463)
# DYRK2 = DYRK2 (UniProt Q92630)
SMILES,kinase-Nluc reporter destabilization hit call (BRAF_V600E),kinase-Nluc reporter destabilization hit call (BTK),kinase-Nluc reporter destabilization hit call (CAMK2A),kinase-Nluc reporter destabilization hit call (CAMK2G),kinase-Nluc reporter destabilization hit call (CDK10),kinase-Nluc reporter destabilization hit call (CDK2),kinase-Nluc reporter destabilization hit call (CDK3),kinase-Nluc reporter destabilization hit call (CDK4),kinase-Nluc reporter destabilization hit call (CDK5),kinase-Nluc reporter destabilization hit call (CDK6),kinase-Nluc reporter destabilization hit call (CDK7),kinase-Nluc reporter destabilization hit call (CDK9),kinase-Nluc reporter destabilization hit call (CHEK2),kinase-Nluc reporter destabilization hit call (CSF1R),kinase-Nluc reporter destabilization hit call (CSK),kinase-Nluc reporter destabilization hit call (CSNK1A1),kinase-Nluc reporter destabilization hit call (CSNK1D),kinase-Nluc reporter destabilization hit call (DDR1),kinase-Nluc reporter destabilization hit call (DYRK1B),kinase-Nluc reporter destabilization hit call (DYRK2)
Cn1cc(-c2c[nH]c3ncnc(N4CCOCC4)c23)cc1C#N (10 µM),inactive: 0,inactive: 0,inactive: 0,inactive: 0,inactive: 0,inactive: 0,inactive: 0,inactive: 0,inactive: 0,inactive: 0,inactive: 0,inactive: 0,inactive: 0,inactive: 0,inactive: 0,inactive: 0,inactive: 0,inactive: 0,inactive: 0,inactive: 0
N#CC(c1ccnc(OCc2ccc(CN3CCOCC3)cc2)n1)c1nc2ccccc2s1 (stereo not given) [Bentamapimod] (2.5 µM),inactive: 0,inactive: 0,inactive: 0,inactive: 0,inactive: 0,inactive: 0,inactive: 0,inactive: 0,inactive: 0,inactive: 0,inactive: 0,inactive: 0,inactive: 0,inactive: 0,inactive: 0,inactive: 0,inactive: 0,inactive: 0,inactive: 0,inactive: 0
Cn1cc(C2=C(c3cn(CCCSC(=N)N)c4ccccc34)C(=O)NC2=O)c2ccccc21 [Ro 31-8220 (mesylate)] (2.5 µM),inactive: 0,inactive: 0,inactive: 0,inactive: 0,inactive: 0,inactive: 0,inactive: 0,inactive: 0,inactive: 0,inactive: 0,inactive: 0,active: 1,inactive: 0,inactive: 0,inactive: 0,inactive: 0,inactive: 0,inactive: 0,inactive: 0,inactive: 0
CC(C)c1cccc(C(C)C)c1N1C(=O)c2ccc(N)cc2C1=O (2.5 µM),inactive: 0,inactive: 0,inactive: 0,inactive: 0,inactive: 0,inactive: 0,inactive: 0,inactive: 0,inactive: 0,inactive: 0,inactive: 0,inactive: 0,inactive: 0,inactive: 0,inactive: 0,inactive: 0,inactive: 0,inactive: 0,inactive: 0,inactive: 0
c1ccc(-c2nc3c(c(-n4ccc5cnccc54)n2)CCC3)nc1 (10 µM),inactive: 0,inactive: 0,inactive: 0,inactive: 0,inactive: 0,inactive: 0,inactive: 0,inactive: 0,inactive: 0,inactive: 0,inactive: 0,inactive: 0,inactive: 0,inactive: 0,inactive: 0,inactive: 0,inactive: 0,inactive: 0,inactive: 0,inactive: 0
CC(=O)c1c(C)c2cnc(Nc3ccc(N4CCN(C(=O)CNc5cccc6c5C(=O)N(C5CCC(=O)NC5=O)C6=O)CC4)cn3)nc2n(C2CCCC2)c1=O (stereo not given) (10 µM),inactive: 0,inactive: 0,inactive: 0,inactive: 0,inactive: 0,inactive: 0,inactive: 0,active: 1,inactive: 0,active: 1,inactive: 0,inactive: 0,inactive: 0,inactive: 0,inactive: 0,inactive: 0,inactive: 0,inactive: 0,inactive: 0,inactive: 0
Cc1nc(-c2cnn(C)c2)nc2c1[nH]c1ncc(-c3ccc(N4CCN(C)CC4)cc3)cc12 [GNE 220 (hydrochloride)] (10 µM),inactive: 0,inactive: 0,inactive: 0,inactive: 0,inactive: 0,inactive: 0,inactive: 0,inactive: 0,inactive: 0,inactive: 0,inactive: 0,inactive: 0,inactive: 0,inactive: 0,inactive: 0,inactive: 0,inactive: 0,inactive: 0,inactive: 0,inactive: 0
FC(F)(F)c1ccc(/C=C/c2nc(COc3ccc(CCCCn4ccnn4)cc3)co2)cc1 [Mubritinib] (10 µM),inactive: 0,inactive: 0,inactive: 0,inactive: 0,inactive: 0,inactive: 0,inactive: 0,inactive: 0,inactive: 0,inactive: 0,inactive: 0,inactive: 0,inactive: 0,inactive: 0,inactive: 0,inactive: 0,inactive: 0,inactive: 0,inactive: 0,inactive: 0
CS(=O)(=O)c1ccc(-c2cnc(N)c(-c3ccc(C(F)(F)F)nc3)c2)cc1 (10 µM),inactive: 0,inactive: 0,inactive: 0,inactive: 0,inactive: 0,inactive: 0,inactive: 0,inactive: 0,inactive: 0,inactive: 0,inactive: 0,inactive: 0,inactive: 0,inactive: 0,inactive: 0,inactive: 0,inactive: 0,inactive: 0,inactive: 0,inactive: 0
COc1ccccc1C(=O)/C=C/c1ccccc1C(=O)O (10 µM),inactive: 0,inactive: 0,inactive: 0,inactive: 0,inactive: 0,inactive: 0,inactive: 0,inactive: 0,inactive: 0,inactive: 0,inactive: 0,inactive: 0,inactive: 0,inactive: 0,inactive: 0,inactive: 0,inactive: 0,inactive: 0,inactive: 0,inactive: 0
O=C(Nc1cccc(Nc2ncc(Br)c(NCCc3cnc[nH]3)n2)c1)N1CCCC1 (10 µM),inactive: 0,inactive: 0,inactive: 0,inactive: 0,inactive: 0,inactive: 0,inactive: 0,inactive: 0,inactive: 0,inactive: 0,inactive: 0,inactive: 0,inactive: 0,inactive: 0,inactive: 0,inactive: 0,inactive: 0,inactive: 0,inactive: 0,inactive: 0
O=C(O)c1cc(N(Cc2ccccc2O)Cc2ccccc2O)ccc1O [Lavendustin B] (10 µM),inactive: 0,inactive: 0,inactive: 0,inactive: 0,inactive: 0,inactive: 0,inactive: 0,inactive: 0,inactive: 0,inactive: 0,inactive: 0,inactive: 0,inactive: 0,inactive: 0,inactive: 0,inactive: 0,inactive: 0,inactive: 0,inactive: 0,inactive: 0
O=C(O)c1cccc(CN2C(=O)/C(=C(\c3ccccc3)c3ccc(Cl)cc3)c3ccccc32)c1 (2.5 µM),inactive: 0,inactive: 0,inactive: 0,inactive: 0,inactive: 0,inactive: 0,inactive: 0,inactive: 0,inactive: 0,inactive: 0,inactive: 0,inactive: 0,inactive: 0,inactive: 0,inactive: 0,inactive: 0,inactive: 0,inactive: 0,inactive: 0,inactive: 0
CCCCCCCC/C=C\CCCCCCCCCCCC(=O)O [Erucic acid] (10 µM),inactive: 0,inactive: 0,inactive: 0,inactive: 0,inactive: 0,inactive: 0,inactive: 0,inactive: 0,inactive: 0,inactive: 0,inactive: 0,inactive: 0,inactive: 0,inactive: 0,inactive: 0,inactive: 0,inactive: 0,inactive: 0,inactive: 0,inactive: 0
CN1CCC(c2ccccc2CC(C)(C)Nc2nc(N3CCOCC3)nc(-n3c(C(F)F)nc4ccccc43)n2)CC1 [Zandelisib] (10 µM),inactive: 0,inactive: 0,inactive: 0,inactive: 0,inactive: 0,inactive: 0,inactive: 0,inactive: 0,inactive: 0,inactive: 0,inactive: 0,inactive: 0,inactive: 0,inactive: 0,inactive: 0,inactive: 0,inactive: 0,inactive: 0,inactive: 0,inactive: 0
CCOC(=O)N1C/C(=C/c2ccccc2F)C(=O)/C(=C\c2ccccc2F)C1 (2.5 µM),inactive: 0,inactive: 0,inactive: 0,inactive: 0,inactive: 0,inactive: 0,inactive: 0,inactive: 0,inactive: 0,inactive: 0,inactive: 0,inactive: 0,inactive: 0,inactive: 0,inactive: 0,inactive: 0,inactive: 0,inactive: 0,inactive: 0,inactive: 0
O=C(Nc1nc2ccccc2[nH]1)c1cccc([N+](=O)[O-])c1 [IRAK-4 protein kinase inhibitor 2] (10 µM),inactive: 0,inactive: 0,inactive: 0,inactive: 0,inactive: 0,inactive: 0,inactive: 0,inactive: 0,inactive: 0,inactive: 0,inactive: 0,inactive: 0,inactive: 0,inactive: 0,inactive: 0,inactive: 0,inactive: 0,inactive: 0,inactive: 0,inactive: 0
Cc1cc(Nc2ncnc3ccc(-c4ccc(CNCCS(C)(=O)=O)o4)cc23)ccc1Oc1ccn2ncnc2c1 [ARRY-380 (analog )] (2.5 µM),inactive: 0,inactive: 0,inactive: 0,inactive: 0,inactive: 0,inactive: 0,inactive: 0,inactive: 0,inactive: 0,inactive: 0,inactive: 0,inactive: 0,inactive: 0,inactive: 0,inactive: 0,inactive: 0,inactive: 0,inactive: 0,inactive: 0,inactive: 0

# Single records (already shown). Values in the order: kinase-Nluc reporter destabilization hit call (BRAF_V600E) | kinase-Nluc reporter destabilization hit call (BTK) | kinase-Nluc reporter destabilization hit call (CAMK2A) | kinase-Nluc reporter destabilization hit call (CAMK2G) | kinase-Nluc reporter destabilization hit call (CDK10) | kinase-Nluc reporter destabilization hit call (CDK2) | kinase-Nluc reporter destabilization hit call (CDK3) | kinase-Nluc reporter destabilization hit call (CDK4) | kinase-Nluc reporter destabilization hit call (CDK5) | kinase-Nluc reporter destabilization hit call (CDK6) | kinase-Nluc reporter destabilization hit call (CDK7) | kinase-Nluc reporter destabilization hit call (CDK9) | kinase-Nluc reporter destabilization hit call (CHEK2) | kinase-Nluc reporter destabilization hit call (CSF1R) | kinase-Nluc reporter destabilization hit call (CSK) | kinase-Nluc reporter destabilization hit call (CSNK1A1) | kinase-Nluc reporter destabilization hit call (CSNK1D) | kinase-Nluc reporter destabilization hit call (DDR1) | kinase-Nluc reporter destabilization hit call (DYRK1B) | kinase-Nluc reporter destabilization hit call (DYRK2)
# `CCCCCCCC/C=C\CCCCCCCCCCCC(=O)O` [Erucic acid] (10 µM) is listed with inactive: 0 | inactive: 0 | inactive: 0 | inactive: 0 | inactive: 0 | inactive: 0 | inactive: 0 | inactive: 0 | inactive: 0 | inactive: 0 | inactive: 0 | inactive: 0 | inactive: 0 | inactive: 0 | inactive: 0 | inactive: 0 | inactive: 0 | inactive: 0 | inactive: 0 | inactive: 0
# `Cc1nc(-c2cnn(C)c2)nc2c1[nH]c1ncc(-c3ccc(N4CCN(C)CC4)cc3)cc12` [GNE 220 (hydrochloride)] (10 µM) is listed with inactive: 0 | inactive: 0 | inactive: 0 | inactive: 0 | inactive: 0 | inactive: 0 | inactive: 0 | inactive: 0 | inactive: 0 | inactive: 0 | inactive: 0 | inactive: 0 | inactive: 0 | inactive: 0 | inactive: 0 | inactive: 0 | inactive: 0 | inactive: 0 | inactive: 0 | inactive: 0
